Measured values: publication doi:10.1101/040337
Results are given in words; binding and its absence hold for the method and conditions named. In cells and extracts the contact can be indirect. For some assays here: Binding can be weak; no strength is given. Tags and fused reporters may be left off the sequences shown.

T1: C-terminally HA-tagged MEC-6 (C. elegans) (UniProt O01811)
T1 sequence: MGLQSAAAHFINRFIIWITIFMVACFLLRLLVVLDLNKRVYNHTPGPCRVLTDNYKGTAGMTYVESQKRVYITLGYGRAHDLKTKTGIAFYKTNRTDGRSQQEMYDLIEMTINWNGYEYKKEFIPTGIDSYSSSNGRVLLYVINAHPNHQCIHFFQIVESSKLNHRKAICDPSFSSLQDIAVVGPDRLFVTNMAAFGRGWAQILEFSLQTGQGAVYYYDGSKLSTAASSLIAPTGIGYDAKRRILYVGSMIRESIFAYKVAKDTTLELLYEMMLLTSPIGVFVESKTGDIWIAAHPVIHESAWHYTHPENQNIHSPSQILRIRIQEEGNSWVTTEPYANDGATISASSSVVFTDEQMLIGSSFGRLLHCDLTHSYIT


Assays:
[1] = biological target: T1, C-terminally HA-tagged MEC-6 (C. elegans); assay: co-IP
[2] = biological target: N-terminally EGFP-tagged POML-1 (C. elegans) (UniProt Q21427); assay: co-IP

Molecule	binding [1]	binding [2]
β-integrin (Xenopus oocyte membrane protein)	no binding	–
C-terminally HA-tagged MEC-6 (protein, UniProt O01811 1-377) MGLQSAAAHFINRFIIWITIFMVACFLLRLLVVLDLNKRVYNHTPGPCRVLTDNYKGTAGMTYVESQKRVYITLGYGRAHDLKTKTGIAFYKTNRTDGRSQQEMYDLIEMTINWNGYEYKKEFIPTGIDSYSSSNGRVLLYVINAHPNHQCIHFFQIVESSKLNHRKAICDPSFSSLQDIAVVGPDRLFVTNMAAFGRGWAQILEFSLQTGQGAVYYYDGSKLSTAASSLIAPTGIGYDAKRRILYVGSMIRESIFAYKVAKDTTLELLYEMMLLTSPIGVFVESKTGDIWIAAHPVIHESAWHYTHPENQNIHSPSQILRIRIQEEGNSWVTTEPYANDGATISASSSVVFTDEQMLIGSSFGRLLHCDLTHSYIT	–	binds
